Data as given in doi:10.1101/2023.10.12.562039.
These are yes or no findings as the source states them, for the method shown. In cells and extracts the contact can be indirect. Here binding means that the protein was enriched with, or labelled near, the bait; the list need not be complete. Where a sequence is shown, tags or fusion partners need not be part of it.

Amino acid sequences for entries named in this document (tags omitted).
UniProt Q8LA13: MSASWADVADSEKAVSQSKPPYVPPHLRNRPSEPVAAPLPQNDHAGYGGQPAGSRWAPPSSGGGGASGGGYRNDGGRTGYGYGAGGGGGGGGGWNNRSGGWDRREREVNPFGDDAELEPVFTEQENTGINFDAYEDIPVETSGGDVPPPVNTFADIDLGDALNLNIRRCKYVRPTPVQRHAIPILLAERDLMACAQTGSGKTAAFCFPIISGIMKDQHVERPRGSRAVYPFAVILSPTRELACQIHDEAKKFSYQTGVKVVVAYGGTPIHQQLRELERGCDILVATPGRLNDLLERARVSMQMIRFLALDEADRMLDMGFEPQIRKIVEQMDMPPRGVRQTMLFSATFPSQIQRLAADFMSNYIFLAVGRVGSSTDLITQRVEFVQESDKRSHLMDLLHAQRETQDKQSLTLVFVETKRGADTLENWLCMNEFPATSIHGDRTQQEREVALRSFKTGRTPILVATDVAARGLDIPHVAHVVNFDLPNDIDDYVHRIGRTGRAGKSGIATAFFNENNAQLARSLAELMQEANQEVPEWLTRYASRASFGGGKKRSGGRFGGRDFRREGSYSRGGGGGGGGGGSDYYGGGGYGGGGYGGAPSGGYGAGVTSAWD
UniProt Q9M2F9: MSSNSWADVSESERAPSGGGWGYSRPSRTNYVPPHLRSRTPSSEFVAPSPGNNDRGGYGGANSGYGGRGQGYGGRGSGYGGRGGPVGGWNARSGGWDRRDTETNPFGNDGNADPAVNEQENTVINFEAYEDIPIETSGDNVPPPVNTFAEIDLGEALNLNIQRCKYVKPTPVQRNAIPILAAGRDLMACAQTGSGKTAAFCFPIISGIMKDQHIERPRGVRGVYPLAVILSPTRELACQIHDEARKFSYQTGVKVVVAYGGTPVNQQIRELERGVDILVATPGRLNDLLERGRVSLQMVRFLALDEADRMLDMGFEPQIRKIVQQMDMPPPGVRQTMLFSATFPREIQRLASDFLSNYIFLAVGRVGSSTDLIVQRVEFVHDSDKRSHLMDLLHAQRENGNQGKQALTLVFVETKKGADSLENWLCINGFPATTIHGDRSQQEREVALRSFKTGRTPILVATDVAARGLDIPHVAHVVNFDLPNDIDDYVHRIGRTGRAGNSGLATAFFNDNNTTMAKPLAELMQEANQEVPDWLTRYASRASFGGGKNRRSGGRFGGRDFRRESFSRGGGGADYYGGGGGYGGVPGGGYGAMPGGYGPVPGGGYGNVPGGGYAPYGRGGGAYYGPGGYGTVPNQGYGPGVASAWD

T1: GFP-AGO1 (ARGONAUTE1 fused to GFP, line pAGO1:GFP-AGO1 ago1-27) (Arabidopsis thaliana) (UniProt O04379)
T1 sequence: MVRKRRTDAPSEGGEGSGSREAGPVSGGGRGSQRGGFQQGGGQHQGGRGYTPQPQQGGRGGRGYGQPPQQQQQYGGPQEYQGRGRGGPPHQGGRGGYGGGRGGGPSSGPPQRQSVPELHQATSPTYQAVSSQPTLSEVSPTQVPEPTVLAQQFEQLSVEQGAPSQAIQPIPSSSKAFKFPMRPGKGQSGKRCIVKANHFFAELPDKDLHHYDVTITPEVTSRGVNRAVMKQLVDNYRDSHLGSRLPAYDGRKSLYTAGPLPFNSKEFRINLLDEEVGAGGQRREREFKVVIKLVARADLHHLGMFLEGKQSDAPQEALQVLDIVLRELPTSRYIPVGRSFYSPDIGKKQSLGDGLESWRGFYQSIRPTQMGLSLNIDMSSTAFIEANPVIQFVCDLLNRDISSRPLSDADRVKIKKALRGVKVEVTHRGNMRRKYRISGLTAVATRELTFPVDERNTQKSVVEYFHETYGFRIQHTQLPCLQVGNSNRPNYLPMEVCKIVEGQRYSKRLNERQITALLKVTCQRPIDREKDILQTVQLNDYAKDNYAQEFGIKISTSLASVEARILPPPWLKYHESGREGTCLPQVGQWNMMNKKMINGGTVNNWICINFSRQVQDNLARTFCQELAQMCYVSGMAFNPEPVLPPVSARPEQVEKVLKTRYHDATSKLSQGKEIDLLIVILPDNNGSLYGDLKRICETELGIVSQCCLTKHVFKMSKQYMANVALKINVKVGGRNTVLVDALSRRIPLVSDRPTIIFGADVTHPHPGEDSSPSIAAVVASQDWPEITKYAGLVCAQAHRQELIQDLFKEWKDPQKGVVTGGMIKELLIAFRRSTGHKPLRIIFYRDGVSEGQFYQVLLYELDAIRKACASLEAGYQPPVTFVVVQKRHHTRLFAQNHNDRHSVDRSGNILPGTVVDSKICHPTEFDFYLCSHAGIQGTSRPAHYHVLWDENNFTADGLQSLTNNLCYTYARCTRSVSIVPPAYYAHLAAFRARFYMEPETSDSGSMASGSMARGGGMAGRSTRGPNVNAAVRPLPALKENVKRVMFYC

B1: Tudor Staphylococcal Nuclease TSN2 (protein, UniProt Q9FLT0 1-985)
chain: MATGAATENQWLKGRVKAVTSGDCLVITALTHNRAGPPPEKTITLSSLMAPKMARRGGIDEPFAWESREFLRKLCIGKEVAFKVDYKVEAIAGREFGSVYLGNENLAKLVVQNGWAKVRRPGQQNQDKVSPYIAELEQLEEQAQQEGFGRWSKVPGAAEASIRNLPPSAVGDSGNFDAMGLLAASKGKPMEGIVEQVRDGSTIRVYLLPEFQFVQVFVAGLQAPSMGRRQSTQEAVVDPDVTATSNGDASAETRGPLTTAQRLAASAASSVEVSSDPFAMEAKYFTELRVLNRDVRIVLEGVDKFNNLIGSVYYSDGDTVKDLGLELVENGLAKYVEWSANMLDEEAKKKLKATELQCKKNRVKMWANYVPPASNSKAIHDQNFTGKVVEVVSGDCLVVADDSIPFGSPMAERRVCLSSIRSPKMGNPRREEKPAPYAREAKEFLRQKLIGMEVIVQMEYSRKISPGDGVTTSGAGDRVMDFGSVFLPSPTKGDTAVAAAATPGANIAELIISRGLGTVVRHRDFEERSNHYDALLAAEARAIAGKKNIHSAKDSPALHIADLTVASAKKAKDFLPSLQRINQISAVVEYVLSGHRFKLYIPKESCSIAFAFSGVRCPGRGEPYSEEAIALMRRKIMQRDVEIVVENVDRTGTFLGSMWEKNSKTNAGTYLLEAGLAKMQTGFGADRIPEAHILEMAERSAKNQKLKIWENYVEGEEVVNGSSKVETRQKETLKVVVTEVLGGGRFYVQTVGDQKVASIQNQLAALSLKDAPIIGSFNPKKGDIVLAQFSLDNSWNRAMIVNGPRGAVQSPEEEFEVFYIDYGNQEIVPYSAIRPVDPSVSSAPGLAQLCRLAYIKVPGKEEDFGRDAGEYLHTVTLESGKEFRAVVEERDTSGGKVKGQGTGTELVVTLIAVDDEISVNAAMLQEGIARMEKRRRWEPKDKQAALDALEKFQDEARKSRTGIWEYGDIQSDDEDNVPVRKPGRG
B2: PAB2 (protein, UniProt P42731 1-629)
chain: MAQVQLQGQTPNGSTAAVTSAPATSGGATATQFGNTSLYVGDLDFNVTDSQLFDAFGQMGTVVTVRVCRDLVTRRSLGYGYVNFTNPQDAARAIQELNYIPLYGKPIRVMYSHRDPSVRRSGAGNIFIKNLDESIDHKALHDTFSSFGNIVSCKVAVDSSGQSKGYGFVQYANEESAQKAIEKLNGMLLNDKQVYVGPFLRRQERDSTANKTKFTNVYVKNLAESTTDDDLKNAFGEYGKITSAVVMKDGEGKSKGFGFVNFENADDAARAVESLNGHKFDDKEWYVGRAQKKSERETELRVRYEQNLKEAADKFQSSNLYVKNLDPSISDEKLKEIFSPFGTVTSSKVMRDPNGTSKGSGFVAFATPEEATEAMSQLSGKMIESKPLYVAIAQRKEDRRVRLQAQFSQVRPVAMQPSVGPRMPVYPPGGPGIGQQMFYGQAPPAMIPPQPGYGYQQQLVPGMRPGGGPVPSFFMPMVQPQQQRPGGGRRPGGIQHSQQQNPMMQQQMHPRGRMFRYPQGRGGSGDVPPYDMGNNMPLTIGALASNLSNATPEQQRTMLGEVLYPLVEQVEAESAAKVTGMLLEMDQTEVLHLLESPEALKAKVAEAMDVLRSVAAGGATEQLASLNLS
B3: VARICOSE (protein, UniProt Q9LTT8 1-1344)
chain: MASSPGNTNPHNTPPFDLGILFKPSSNPYPPPAASYPPPTGPFLHNQYDQQHYAPPGISAQPSPVTQQQQDVSSSSAATNLHPQRTLSYPTPPLNLQSPRSNHNPGTHILALLNNTNNGAPVANQEPSHQLPVVNHNEIARSFPGGSGPIRVPSCKLPKGRRLIGEHAVYDVDVRLQGEIQPQLEVTPITKYGSDPQLVVGRQIAVNKVYICYGLKGGNIRVLNINTALRSLFRGHSQRVTDMAFFAEDVDMLASVSLDGKVFVWKISEGSEGEDQPQITGKIVLALQILGEEDTKHPRVCWHCHKQEILVVSIGKHVLRIDTTKVGRGEVFSAEAPLQCPLDKLIDGVQIVGKHDGEVTDLSMCQWMTTRLVSSSVDGTIKIWQDRKAQPLVVLRPHDGHPVSSATFVTSPERPDHIILITGGPLNREMKIWVSAGEEGWLLPADAESWRCTQTLDLKSSTEPRAEEAFFNQVIALSEAGLLLLANAKRNALYAVHLDYGSSPVGTRMDYLSEFTVTMPILSFIGTNDPPEEPIVKVYCVQTLAIQQYTLDLCLCLPPPIENMGLEKSDSSVSREANLVEGMSEPSGLKPTDLPSVDSVPKPSIIVNRSESANKLSFPSAEATSQAIVPPNGEPKTSGLPSQTSGAGSAYATLPQLPLSPRLSSKLSGYHTPVEAIEPVIPHHELGGKTPSADYSVDRQMDAVGERNLDVSSVEEISRSKDSNVTPDDDVSGMRSPSAFFKHPTHLVTPSEILMGVSSAEASITTEDRRDRDANIQDVNNDPRDTEVEVKEISEARSTQNGEINDHDETENCTSENREKVFCSQVSNLSTEMARDCYPSTEGTFIPGESKAYGQPIKAGDESGVDSRGGPAKLLKGKKQKAKNSQGPGLSSTSSNVANLADSFNEQSQSLSHPMTDLLPQLLAMQETMNQVMASQKEMQRQLSNAATGPIGKESKRLEVALGRMIEKSSKSNADALWARIQEETVKNEKALRDHAQQIVNATTNFMSKELNAMFEKTIKKELAAIGPALARSVVPVIEKTVSSAITESFQRGIGDKAVNQLDKSVNIKLEATVARQIQAQFQTSGKQALQEGLRSSVESSVIPSFEKACKAMFDQIDSAFQKGIAEHTNAAQQRFDSGHSQLAHTLKESITSASSVAQALSRELAETQRNLLALAAAGANSGGSNSLVTQLSGGPLGALLEKVEAPMDPTTELSRLISERKYEESFTSALQRSDVSIVSWLCSQVDLRGLLAMNPLPLSQGVLLSLLQQLACDISKDTSRKLAWMTDVVAAINPSDQMIAVHARPIFEQVYQILHHHRNAPGSDVSAIRLIMHVINSMLMGCK
B4: Tudor Staphylococcal Nuclease TSN1 (protein, UniProt Q8VZG7 1-991)
chain: MATGAENQWLKGRVKAVTSGDCLVITALSHNRAGPPPEKTITFSSLMAPKMARRGGIDEPFAWESKEFLRKLCIGKEVAFKVDYKVEAIAGREFGSVFLGNENLAKLVVKTGWAKVREPGQQNQDKVSPYIKELLQLEELAKQEGYGRWSKVPGAAEASIRNLPPSAIGDSAGFDAMGLLAANKGKPMEGIVEQVRDGSTIRVYLLPEFQFVQVFVAGVQAPSMGRRTTNGSVVETVPDEPNGDVSAESRGPLTTAQRLAASAASSVEVSSDPFATEAKYFTEHRVLSRDVRIVLEGVDKFNNLIGSVHYSDGETVKDLGLELVENGLAKFVEWSANMMEEEAKKKLKAAELQCKKDKVKMWANYVPPATNSKAIHDQNFTGKVVEVVSGDCLIVADDAVPFGSPAAERRVCLSSIRSPKMGNPRREEKPAPYAREAREFLRQRLIGKQVIVQMEYSRKVTQGDGPTTSGAADRFMDFGSVFLPSAAKADSDEVTAPPAAAIAGSQPVGVNIAELVLVRGFGNVVRHRDFEERSNHYDALLAAEARALAGKKGIHSAKESPAMHITDLTVSAAKKAKDFLPSLQRIRRIPAVVEYVLSGHRFKLYIPKITCSIAFSFSGVRCPGRGEPYSEEAISVMRRRIMQRDVEIEVETVDRTGTFLGSMWESRTNVATVLLEAGLAKMQTSFGADRIAEAHLLEQAERSAKNQKLKIWENYVEGEEVSNGNTNTVETRQKETLKVVVTEVLGGGRFYVQSAGDQKIASIQNQLASLSIKDAPIIGSFNPKRGDIVLAQFSLDNSWNRAMIVTAPRAAVQSPDEKFEVFYIDYGNQETVPYSAIRPIDPSVSAAPGLAQLCRLAYIKVPSLEDDFGPEAGEYLHTVTLGSGKEFKAVIEERDTSGGKVKGQGTGTEFVVTLIAVDDEISVNAAMLQEGIARMEKRQKWGHKGKQAALDALEKFQEEARKSRIGIWQYGDIESDDEDTGPARKPAGGRR
B5: DCP5 (protein, UniProt Q9C658 1-611)
chain: MAADNTGSKSSSAADSYVGSLISLTSKSEIRYEGILYNINTDESSIGLQNVRSFGTEGRKKDGPQVPPSDKVYEYILFRGTDIKDLQVKASPPVQPPASTINNDPAIIQSHYPSPMPTSGSLPSTASGSLPDISSHNGQPGQHGMGFQNAMPLYQPGGNLGSWGASPQPPMYWQGFYTPPPNGLPQLHQQSLIRPPHGLPMPNSLQQPLQYPNFNTPPPPTGSSSLQGSSLPEAPSSLFPFSTSSQMLAPSSLPFPGLPPVTLSSSLQSTLQSAPSPSLASEMAPPLLSNKAPITAPPTLPQDTNLLSFSLSTTRATEASTGLPLSNKPSVVTGPISPPQTTPLTSAPVAGVSSSISQDKPKPLLVTPGQLLQSGSSAVSLSPPSTNADKDVEVVQVSSSAGLEQSVPVTSEAQPPILPLPSSARPTQKPNGHSFPNHNGYRGRGRGRGRGAGRSHQVMKFTEDFDFTAMNEKFNKDEVWGHLGKSTTLDGDEDDDSPTVDEAELPKIEAKPVYNKDDFFDSLSSNTIDRESQNSRPRFSEQRKLDTETFGEFSRFRGGRGGRGGYGRNNGYSRGGYGGRGYGGYGGRGGGGGGYGYGGRGQGRGVSNRTT

biological target: T1, GFP-AGO1 (ARGONAUTE1 fused to GFP, line pAGO1:GFP-AGO1 ago1-27) (Arabidopsis thaliana); test: affinity purification with mass spectrometry

Question: “RNA helicase RH11 (from UniProt Q8LA13 1-612)” was tested. Which binding did it give?
Answer: The binding was “binds”.

Question: “RNA helicase RH52 (from UniProt Q9M2F9 1-646)” was tested. Which binding did it give?
Answer: The binding was “binds”.

Question: G3BP1 was tested. Which binding did it give?
Answer: The binding was “binds”.

Question: Which binding does the source give for B1 here?
Answer: Its binding is “binds”.

Question: For B2, which binding is on record?
Answer: The binding was “binds”.

Question: B3 was tested. Which binding did it give?
Answer: The binding was “binds”.

Question: B4 was tested. Which binding did it give?
Answer: The binding was “binds”.

Question: Which binding does the source give for B5 here?
Answer: The binding was “binds”.
